{
  "sequences": {"note": "Protein sequences, listed by entry. Tags and fused reporters are not part of them. Lines headed by an entry give the natural chain unless they say otherwise; changes in a name come on top.", "UniProt Q13263": "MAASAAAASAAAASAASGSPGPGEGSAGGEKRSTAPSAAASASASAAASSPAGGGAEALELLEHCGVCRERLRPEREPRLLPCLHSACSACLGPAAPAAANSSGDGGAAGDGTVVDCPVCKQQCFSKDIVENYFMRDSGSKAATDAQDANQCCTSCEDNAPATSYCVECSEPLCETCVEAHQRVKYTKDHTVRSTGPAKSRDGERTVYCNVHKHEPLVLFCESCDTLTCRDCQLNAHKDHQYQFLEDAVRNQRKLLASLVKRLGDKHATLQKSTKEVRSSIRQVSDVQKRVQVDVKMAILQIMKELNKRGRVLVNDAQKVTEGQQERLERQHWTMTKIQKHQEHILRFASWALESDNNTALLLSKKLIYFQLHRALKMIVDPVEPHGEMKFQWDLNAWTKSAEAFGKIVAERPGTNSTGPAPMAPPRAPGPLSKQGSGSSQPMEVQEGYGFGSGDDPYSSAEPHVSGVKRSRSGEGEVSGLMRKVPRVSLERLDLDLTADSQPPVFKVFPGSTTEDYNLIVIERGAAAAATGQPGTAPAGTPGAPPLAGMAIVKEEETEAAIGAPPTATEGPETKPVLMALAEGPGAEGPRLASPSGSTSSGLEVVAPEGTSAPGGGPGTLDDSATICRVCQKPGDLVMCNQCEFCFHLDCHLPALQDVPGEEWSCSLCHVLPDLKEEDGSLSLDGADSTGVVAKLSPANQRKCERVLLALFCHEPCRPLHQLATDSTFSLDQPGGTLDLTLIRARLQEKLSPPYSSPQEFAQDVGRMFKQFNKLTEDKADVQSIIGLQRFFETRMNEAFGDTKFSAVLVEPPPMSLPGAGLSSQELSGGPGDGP", "UniProt P21506": "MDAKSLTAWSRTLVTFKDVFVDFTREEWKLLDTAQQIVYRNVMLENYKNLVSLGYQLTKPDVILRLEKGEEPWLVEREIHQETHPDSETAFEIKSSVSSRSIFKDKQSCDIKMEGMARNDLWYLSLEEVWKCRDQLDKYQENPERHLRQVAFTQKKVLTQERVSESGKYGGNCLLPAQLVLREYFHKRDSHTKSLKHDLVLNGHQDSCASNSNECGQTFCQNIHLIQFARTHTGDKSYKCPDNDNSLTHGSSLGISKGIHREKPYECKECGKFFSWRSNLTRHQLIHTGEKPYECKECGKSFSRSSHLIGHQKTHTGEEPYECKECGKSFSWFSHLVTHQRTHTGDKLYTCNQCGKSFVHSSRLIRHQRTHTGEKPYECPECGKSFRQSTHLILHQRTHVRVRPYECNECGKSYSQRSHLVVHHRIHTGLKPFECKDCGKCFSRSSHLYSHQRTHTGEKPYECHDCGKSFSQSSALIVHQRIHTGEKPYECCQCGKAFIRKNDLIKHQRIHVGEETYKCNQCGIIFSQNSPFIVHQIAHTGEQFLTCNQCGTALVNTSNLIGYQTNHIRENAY"},
  "source": "paper PMC6923878",
  "target": "TRIM28 (endogenous) (human (endogenous in HeLa)) (UniProt Q13263)",
  "assay": "co-IP; HeLa cells transiently expressing GST fusions; endogenous TRIM28 as bait, precipitated with mAb 1Tb1A9 on protein G Mag-Sepharose; TST buffer, overnight at 4 °C; Western blot with anti-TRIM28 and anti-GST",
  "note": "These are yes or no findings as the source states them, for the method shown. In cells and extracts the contact can be indirect. Binding can be weak; no strength is given.",
  "data": [
    {"substance": "GST fusion of the ZNF10 KRAB-AB domain (from UniProt P21506) (domain or fragment)", "values": [
      {"measurement": "binding", "value": "binds"}
    ]}
  ]
}
